The supplement of paper PMC12067093, “Discovery and optimisation of a covalent ligand for TRIM25 and its application to targeted protein ubiquitination” (Chemical Science, 2025)
This is one part of the list.

By UniProt entry, the sequences of proteins in these tests, tags left out. Where a name states a change or a piece, a line headed by the entry shows the natural chain unless it says otherwise.
UniProt P19793: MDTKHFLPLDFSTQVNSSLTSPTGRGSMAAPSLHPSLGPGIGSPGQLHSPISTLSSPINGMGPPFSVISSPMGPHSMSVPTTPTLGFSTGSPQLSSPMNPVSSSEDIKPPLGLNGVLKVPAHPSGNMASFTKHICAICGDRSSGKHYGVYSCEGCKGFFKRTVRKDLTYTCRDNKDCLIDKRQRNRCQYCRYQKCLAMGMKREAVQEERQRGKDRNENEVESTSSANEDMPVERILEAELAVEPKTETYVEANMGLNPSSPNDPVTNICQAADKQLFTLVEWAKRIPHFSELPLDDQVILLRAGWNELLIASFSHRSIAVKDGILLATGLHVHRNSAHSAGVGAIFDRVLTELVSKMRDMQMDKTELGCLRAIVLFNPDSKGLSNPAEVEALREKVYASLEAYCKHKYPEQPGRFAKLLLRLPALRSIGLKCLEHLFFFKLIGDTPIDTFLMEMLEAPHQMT
UniProt Q9NZJ4: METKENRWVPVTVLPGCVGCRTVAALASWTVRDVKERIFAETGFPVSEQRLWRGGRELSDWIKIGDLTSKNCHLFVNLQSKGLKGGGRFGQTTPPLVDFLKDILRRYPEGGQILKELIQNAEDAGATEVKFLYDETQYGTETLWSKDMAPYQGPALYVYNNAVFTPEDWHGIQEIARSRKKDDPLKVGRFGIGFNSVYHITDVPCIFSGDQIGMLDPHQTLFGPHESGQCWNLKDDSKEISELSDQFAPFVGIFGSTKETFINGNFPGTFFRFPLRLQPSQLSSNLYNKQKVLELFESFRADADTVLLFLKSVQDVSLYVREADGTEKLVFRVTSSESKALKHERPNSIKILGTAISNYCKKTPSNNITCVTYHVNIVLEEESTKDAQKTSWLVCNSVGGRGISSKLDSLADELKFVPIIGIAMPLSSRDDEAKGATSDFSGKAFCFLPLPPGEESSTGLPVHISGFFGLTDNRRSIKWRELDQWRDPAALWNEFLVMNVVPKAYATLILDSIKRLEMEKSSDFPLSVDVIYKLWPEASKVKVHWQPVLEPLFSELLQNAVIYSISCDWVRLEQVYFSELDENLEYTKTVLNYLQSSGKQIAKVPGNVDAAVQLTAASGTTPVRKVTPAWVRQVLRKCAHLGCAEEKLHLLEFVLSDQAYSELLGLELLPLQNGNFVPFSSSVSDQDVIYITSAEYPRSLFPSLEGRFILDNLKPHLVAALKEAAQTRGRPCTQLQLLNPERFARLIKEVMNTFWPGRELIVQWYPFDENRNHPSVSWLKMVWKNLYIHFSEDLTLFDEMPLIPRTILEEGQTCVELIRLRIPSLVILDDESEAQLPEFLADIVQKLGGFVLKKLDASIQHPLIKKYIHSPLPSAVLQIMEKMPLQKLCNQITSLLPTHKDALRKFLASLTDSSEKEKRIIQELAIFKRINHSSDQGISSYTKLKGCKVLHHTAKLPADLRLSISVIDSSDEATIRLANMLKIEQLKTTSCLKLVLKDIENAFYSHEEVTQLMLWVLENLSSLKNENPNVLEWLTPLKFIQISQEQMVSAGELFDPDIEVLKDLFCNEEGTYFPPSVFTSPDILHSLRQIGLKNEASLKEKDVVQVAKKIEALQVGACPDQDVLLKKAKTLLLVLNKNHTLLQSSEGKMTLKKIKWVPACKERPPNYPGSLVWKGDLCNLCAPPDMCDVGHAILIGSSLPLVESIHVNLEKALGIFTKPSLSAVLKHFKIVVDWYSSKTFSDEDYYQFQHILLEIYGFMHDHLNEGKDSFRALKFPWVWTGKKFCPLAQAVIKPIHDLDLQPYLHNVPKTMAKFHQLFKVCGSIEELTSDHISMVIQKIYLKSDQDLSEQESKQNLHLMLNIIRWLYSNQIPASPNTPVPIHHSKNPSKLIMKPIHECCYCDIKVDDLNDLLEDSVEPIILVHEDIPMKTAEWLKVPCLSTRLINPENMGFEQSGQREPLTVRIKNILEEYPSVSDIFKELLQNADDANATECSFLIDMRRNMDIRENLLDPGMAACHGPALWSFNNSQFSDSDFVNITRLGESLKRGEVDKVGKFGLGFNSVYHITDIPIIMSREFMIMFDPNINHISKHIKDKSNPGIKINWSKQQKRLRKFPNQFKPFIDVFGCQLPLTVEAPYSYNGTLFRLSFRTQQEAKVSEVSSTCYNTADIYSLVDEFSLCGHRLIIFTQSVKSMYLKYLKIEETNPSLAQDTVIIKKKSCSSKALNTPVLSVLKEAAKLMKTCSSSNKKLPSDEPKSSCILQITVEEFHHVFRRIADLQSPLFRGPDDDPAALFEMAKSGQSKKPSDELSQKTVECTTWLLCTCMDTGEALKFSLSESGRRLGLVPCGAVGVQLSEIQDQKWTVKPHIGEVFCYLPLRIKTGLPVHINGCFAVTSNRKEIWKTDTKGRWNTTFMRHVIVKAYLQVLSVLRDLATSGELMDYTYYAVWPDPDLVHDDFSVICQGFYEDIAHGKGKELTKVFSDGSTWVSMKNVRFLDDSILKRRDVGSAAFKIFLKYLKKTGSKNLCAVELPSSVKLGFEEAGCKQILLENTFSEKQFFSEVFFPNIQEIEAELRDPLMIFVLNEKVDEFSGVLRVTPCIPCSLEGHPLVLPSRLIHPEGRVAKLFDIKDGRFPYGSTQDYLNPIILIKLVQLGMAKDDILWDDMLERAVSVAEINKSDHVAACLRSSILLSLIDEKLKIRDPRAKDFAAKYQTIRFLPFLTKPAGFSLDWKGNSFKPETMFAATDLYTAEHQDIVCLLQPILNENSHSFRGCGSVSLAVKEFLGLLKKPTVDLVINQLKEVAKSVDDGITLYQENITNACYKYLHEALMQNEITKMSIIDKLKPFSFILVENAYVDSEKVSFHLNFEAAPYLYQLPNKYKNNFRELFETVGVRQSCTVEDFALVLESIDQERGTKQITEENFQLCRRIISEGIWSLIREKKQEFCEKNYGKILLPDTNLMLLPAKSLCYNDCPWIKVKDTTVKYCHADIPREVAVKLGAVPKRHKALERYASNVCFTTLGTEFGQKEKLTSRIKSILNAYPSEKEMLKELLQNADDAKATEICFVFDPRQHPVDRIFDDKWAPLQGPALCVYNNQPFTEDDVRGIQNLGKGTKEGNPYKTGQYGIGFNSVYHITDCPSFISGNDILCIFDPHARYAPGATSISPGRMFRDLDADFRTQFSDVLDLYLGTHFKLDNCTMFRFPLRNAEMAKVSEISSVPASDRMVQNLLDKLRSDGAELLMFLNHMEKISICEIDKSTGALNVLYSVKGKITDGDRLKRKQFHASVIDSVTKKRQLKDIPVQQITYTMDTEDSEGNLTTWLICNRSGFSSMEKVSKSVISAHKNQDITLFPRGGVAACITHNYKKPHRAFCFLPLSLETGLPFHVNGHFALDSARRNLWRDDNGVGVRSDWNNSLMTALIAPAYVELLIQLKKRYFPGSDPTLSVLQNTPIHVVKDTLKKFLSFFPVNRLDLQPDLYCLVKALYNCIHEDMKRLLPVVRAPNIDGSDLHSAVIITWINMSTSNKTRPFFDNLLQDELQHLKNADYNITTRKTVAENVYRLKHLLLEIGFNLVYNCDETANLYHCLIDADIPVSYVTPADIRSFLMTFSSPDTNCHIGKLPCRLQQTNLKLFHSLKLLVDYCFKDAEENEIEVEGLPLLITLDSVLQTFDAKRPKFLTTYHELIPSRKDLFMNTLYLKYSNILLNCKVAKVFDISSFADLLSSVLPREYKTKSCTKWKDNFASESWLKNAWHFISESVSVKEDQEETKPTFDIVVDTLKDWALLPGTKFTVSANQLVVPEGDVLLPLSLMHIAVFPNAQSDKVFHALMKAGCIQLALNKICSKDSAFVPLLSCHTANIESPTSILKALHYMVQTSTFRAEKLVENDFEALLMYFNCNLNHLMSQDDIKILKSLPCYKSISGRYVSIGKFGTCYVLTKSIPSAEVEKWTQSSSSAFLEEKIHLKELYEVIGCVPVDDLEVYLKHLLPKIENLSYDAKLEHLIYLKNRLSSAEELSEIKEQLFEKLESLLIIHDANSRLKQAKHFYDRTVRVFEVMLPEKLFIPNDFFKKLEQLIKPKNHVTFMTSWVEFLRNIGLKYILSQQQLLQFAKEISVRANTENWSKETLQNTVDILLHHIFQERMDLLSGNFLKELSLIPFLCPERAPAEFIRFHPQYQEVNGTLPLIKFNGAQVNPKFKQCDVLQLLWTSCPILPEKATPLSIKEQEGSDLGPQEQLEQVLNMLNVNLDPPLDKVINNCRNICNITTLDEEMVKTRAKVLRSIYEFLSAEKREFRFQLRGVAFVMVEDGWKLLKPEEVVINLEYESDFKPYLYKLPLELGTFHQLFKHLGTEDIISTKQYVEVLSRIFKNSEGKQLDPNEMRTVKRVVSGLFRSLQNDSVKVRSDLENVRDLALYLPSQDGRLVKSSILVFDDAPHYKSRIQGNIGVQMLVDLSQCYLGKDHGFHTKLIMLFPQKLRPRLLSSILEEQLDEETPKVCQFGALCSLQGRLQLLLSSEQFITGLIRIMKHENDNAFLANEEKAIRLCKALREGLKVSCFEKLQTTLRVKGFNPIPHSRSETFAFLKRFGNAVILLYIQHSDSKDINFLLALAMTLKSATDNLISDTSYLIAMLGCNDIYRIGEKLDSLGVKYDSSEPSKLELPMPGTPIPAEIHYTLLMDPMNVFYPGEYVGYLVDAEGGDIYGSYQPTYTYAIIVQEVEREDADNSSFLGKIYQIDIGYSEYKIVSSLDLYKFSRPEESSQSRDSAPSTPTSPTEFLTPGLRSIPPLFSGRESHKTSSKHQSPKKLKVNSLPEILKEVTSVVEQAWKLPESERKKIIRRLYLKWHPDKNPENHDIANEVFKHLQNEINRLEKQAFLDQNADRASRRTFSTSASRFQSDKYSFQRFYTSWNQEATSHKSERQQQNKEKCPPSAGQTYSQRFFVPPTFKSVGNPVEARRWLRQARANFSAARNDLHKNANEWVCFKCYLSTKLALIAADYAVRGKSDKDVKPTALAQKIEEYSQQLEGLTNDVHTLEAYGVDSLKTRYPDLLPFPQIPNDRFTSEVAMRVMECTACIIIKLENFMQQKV
UniProt Q5VWQ0: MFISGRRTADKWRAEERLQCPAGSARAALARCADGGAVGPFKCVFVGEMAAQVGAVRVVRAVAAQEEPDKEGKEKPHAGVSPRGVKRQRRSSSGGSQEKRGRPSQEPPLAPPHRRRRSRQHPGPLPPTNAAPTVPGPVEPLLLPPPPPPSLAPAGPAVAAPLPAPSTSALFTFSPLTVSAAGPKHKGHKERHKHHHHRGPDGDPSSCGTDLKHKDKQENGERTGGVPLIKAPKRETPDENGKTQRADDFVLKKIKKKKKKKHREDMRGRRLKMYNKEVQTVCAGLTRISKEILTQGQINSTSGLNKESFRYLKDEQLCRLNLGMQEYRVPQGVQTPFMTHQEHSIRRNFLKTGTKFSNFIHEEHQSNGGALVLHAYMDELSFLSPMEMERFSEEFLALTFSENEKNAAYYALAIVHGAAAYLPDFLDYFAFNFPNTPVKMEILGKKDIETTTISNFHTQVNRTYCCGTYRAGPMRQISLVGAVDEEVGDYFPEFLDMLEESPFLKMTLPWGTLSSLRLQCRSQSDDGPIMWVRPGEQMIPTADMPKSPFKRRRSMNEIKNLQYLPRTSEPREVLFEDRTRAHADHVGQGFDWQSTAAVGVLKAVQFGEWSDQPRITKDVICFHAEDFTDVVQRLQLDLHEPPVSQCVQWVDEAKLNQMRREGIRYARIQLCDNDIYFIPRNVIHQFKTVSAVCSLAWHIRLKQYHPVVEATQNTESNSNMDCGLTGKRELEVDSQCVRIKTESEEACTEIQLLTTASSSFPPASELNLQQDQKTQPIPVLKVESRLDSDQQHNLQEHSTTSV
UniProt Q96DX4: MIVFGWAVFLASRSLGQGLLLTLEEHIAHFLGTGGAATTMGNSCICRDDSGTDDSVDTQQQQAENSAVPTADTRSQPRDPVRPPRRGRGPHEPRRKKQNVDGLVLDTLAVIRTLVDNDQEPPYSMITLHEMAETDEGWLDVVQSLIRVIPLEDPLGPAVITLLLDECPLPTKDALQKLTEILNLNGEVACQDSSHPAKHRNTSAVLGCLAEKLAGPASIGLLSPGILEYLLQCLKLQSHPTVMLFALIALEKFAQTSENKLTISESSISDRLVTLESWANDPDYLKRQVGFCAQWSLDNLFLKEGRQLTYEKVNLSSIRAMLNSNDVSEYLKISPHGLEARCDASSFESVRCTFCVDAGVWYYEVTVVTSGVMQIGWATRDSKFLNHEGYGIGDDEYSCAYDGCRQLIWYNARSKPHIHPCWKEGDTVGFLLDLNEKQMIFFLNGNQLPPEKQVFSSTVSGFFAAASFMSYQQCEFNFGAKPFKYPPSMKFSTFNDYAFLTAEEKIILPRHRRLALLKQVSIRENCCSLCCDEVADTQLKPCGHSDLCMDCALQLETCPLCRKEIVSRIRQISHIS
UniProt P05109: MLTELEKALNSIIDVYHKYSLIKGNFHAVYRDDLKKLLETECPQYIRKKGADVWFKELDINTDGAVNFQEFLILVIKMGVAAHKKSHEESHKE

Compound: Cc1cc(ccc1-c1ccccc1)C(=O)N1CCCN(CC1)C(=O)CCl [compound 10]
Test: probe-labelled cysteine peptide fold change vs DMSO (competition) (log2 fold change); higher = less target engagement (more negative = stronger competition)
Conditions: THP-1, incubation time: 4 h
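Note: competitive profiling in live THP-1 cells: cysteine peptides tagged with an iodoacetamide desthiobiotin (IA-DTB) probe, intensity after compound treatment relative to DMSO-treated cells.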

Target	probe-labelled cysteine peptide fold change (10 µM)	probe-labelled cysteine peptide fold change (50 µM)
SAAL1_Q96ER3_74_SSSDDEEQLTELDEEMENEICR (UniProt Q96ER3)	0.00475	-0.0536
RTCB_Q9Y3I0_193_EHCEEYGR (UniProt Q9Y3I0)	-0.126	0.0353
RREB1_Q92766_291_DAMGRPFIQNNPSIPAGFHDLGFTDFSCR (UniProt Q92766)	0.2	0.311
SAAL1_Q96ER3_366_VLQNMEQCQK (UniProt Q96ER3)	-0.193	-0.171
RTFDC1_Q9BY42_3_GCDGGTIPK (UniProt Q9BY42)	-0.146	-0.568
RPS15A_P62244_72_CGVISPR (UniProt P62244)	-0.088	-0.0168
RUFY1_Q96T51_184_LCPEASDIATSVR (UniProt Q96T51)	0.0175	0.142
RPS3_P23396_119_RACYGVLR (UniProt P23396)	-0.0679	0.00385
RRM1_P23921_779+787_NTAAMVCSLENRDECLMCGS (UniProt P23921)	-0.321	-0.786
SAMHD1_Q9Y3Z3_320_DCHHLGIQNNFDYK (UniProt Q9Y3Z3)	-0.0843	0.165
RRAGA_Q7L523_157_LSRPLECACFR (UniProt Q7L523)	0.131	0.307
RXRA_P19793_369_TELGCLR (UniProt P19793)	0.0861	0.139
RPS4X_P62701_181_FDTGNLCMVTGGANLGR (UniProt P62701)	-0.0033	-0.0251
RPS12_P25398_56_RQAHLCVLASNCDEPMYVK (UniProt P25398)	-0.0352	-0.192
RPS27A_P62979_121+126_RECPSDECGAGVFMASHFDR (UniProt P62979)	-0.206	-0.381
SAFB2_Q14151_672_LQLECQR (UniProt Q14151)	-0.404	-0.689
RRM2_P31350_270_DEGLHCDFACLMFK (UniProt P31350)	-0.0303	-0.127
RPUSD2_Q8IZ73_246_LLAENEDVVVVDKPSSIPVHPCGR (UniProt Q8IZ73)	-0.561	-1.57
RTFDC1_Q9BY42_121_FICPVVGLEMNGR (UniProt Q9BY42)	0.0132	-0.177
RPS2_P15880_229_GCTATLGNFAK (UniProt P15880)	0.138	-0.203
RRP12_Q5JTH9_673_GCQAEADR (UniProt Q5JTH9)	-0.188	0.135
SACS_Q9NZJ4_1285_FCPLAQAVIKPIHDLDLQPYLHNVPK (UniProt Q9NZJ4)	0.0184	-0.437

Target	probe-labelled cysteine peptide fold change (10 µM)	probe-labelled cysteine peptide fold change (50 µM)
SACS_Q9NZJ4_2182_SDHVAACLR (UniProt Q9NZJ4)	0.189	-0.223
RRM2_P31350_270+274_DEGLHCDFACLMFK (UniProt P31350)	0.112	-0.0779
RPS12_P25398_69_LVEALCAEHQINLIK (UniProt P25398)	0.0876	-0.065
RPS6KB1_P23443_90_IRPECFELLR (UniProt P23443)	-0.152	-0.0416
RSBN1_Q5VWQ0_621_DVICFHAEDFTDVVQR (UniProt Q5VWQ0)	0.295	0.296
RRBP1_Q9P2E9_1128_LREAEETQSTLQAECDQYR (UniProt Q9P2E9)	0.395	0.325
SAMD9_Q5K651_605_HQDEISSQCISALSLEEINGTILK (UniProt Q5K651)	0.0483	0.138
RRM1_P23921_787_NTAAMVCSLENRDECLMCGS (UniProt P23921)	-0.466	-0.515
SAAL1_Q96ER3_248_LVPCILEAAK (UniProt Q96ER3)	0.0544	-0.249
SACM1L_Q9NTJ5_23_FYVEACDDGADDVLTIDR (UniProt Q9NTJ5)	-0.19	0.242
RSPRY1_Q96DX4_190_LTEILNLNGEVACQDSSHPAK (UniProt Q96DX4)	-0.116	-0.341
RUFY1_Q96T51_675_NCGHIFCNTCSSNELALPSYPK (UniProt Q96T51)	0.141	0.0566
RRM1_P23921_218_WFTHASPTLFNAGTNRPQLSSCFLLSMKDDSIEGIYDTLK (UniProt P23921)	0.0558	0.177
RREB1_Q92766_1251_ITCPHCPR (UniProt Q92766)	-0.0271	-0.108
RPS17_P08708_35_RVCEEIAIIPSK (UniProt P08708)	-0.582	0.161
RXRA_P19793_195_CLAMGMK (UniProt P19793)	-0.154	-0.22
RPS6KA1_Q15418_432_ETIGVGSYSECKR (UniProt Q15418)	-1.06	-2.91
RPS3_P23396_134_GCEVVVSGK (UniProt P23396)	0.0199	0.0174
RPS15A_P62244_30_RQVLIRPCSK (UniProt P62244)	-0.47	0.254
RPS5_P46782_155_VNQAIWLLCTGAR (UniProt P46782)	0.0529	0.0612
RPS8_P62241_182_PGQCGR (UniProt P62241)	0.149	0.502
RPS16_P62249_25_TATAVAHCK (UniProt P62249)	-0.127	-0.145

Target	probe-labelled cysteine peptide fold change (10 µM)	probe-labelled cysteine peptide fold change (50 µM)
RSBN1_Q5VWQ0_282_EVQTVCAGLTR (UniProt Q5VWQ0)	-0.255	-0.509
RPS2_P15880_188_CGSVLVR (UniProt P15880)	-0.095	-0.125
RPUSD2_Q8IZ73_344_GKPCETVFQR (UniProt Q8IZ73)	0.135	-0.09
SACS_Q9NZJ4_2869_AFCFLPLSLETGLPFHVNGHFALDSAR (UniProt Q9NZJ4)	-0.0964	0.104
RRM2_P31350_202_EFLFNAIETMPCVK (UniProt P31350)	0.113	-0.0369
RUVBL2_Q9Y230_413_YAIQLITAASLVCR (UniProt Q9Y230)	0.0548	0.114
RPS4X_P62701_41_LRECLPLIIFLR (UniProt P62701)	-0.176	0.274
RSBN1_Q5VWQ0_207_GPDGDPSSCGTDLK (UniProt Q5VWQ0)	-0.142	-0.182
RPS11_P62280_131_DVQIGDIVTVGECRPLSK (UniProt P62280)	0.00424	-0.0975
SAE1_Q9UBE0_303_YCFSEMAPVCAVVGGILAQEIVK (UniProt Q9UBE0)	0.138	0.027
RSL1D1_O76021_96_SDSEDICLFTK (UniProt O76021)	0.0269	0.0589
RYBP_Q8N488_44_CSICDVR (UniProt Q8N488)	0.0958	-0.0668
S100A11_P31949_13_CIESLIAVFQK (UniProt P31949)	-0.0178	-0.15
RSBN1L_Q6PCB5_10_AEPPSPVHCVAAAAPTATVSEK (UniProt Q6PCB5)	0.0789	0.104
SAE1_Q9UBE0_295_YCFSEMAPVCAVVGGILAQEIVK (UniProt Q9UBE0)	-0.252	0.0287
RRP7A_Q9Y3A4_8_CAARDPEDR (UniProt Q9Y3A4)	-0.0213	-0.237
RPS12_P25398_106_KVVGCSCVVVK (UniProt P25398)	-0.0356	-0.416
RRM1_P23921_26_LCYGLNMDFVDPAQITMK (UniProt P23921)	0.0208	0.0852
RSL24D1_Q9UHA3_6_CYFCSGPIYPGHGMMFVR (UniProt Q9UHA3)	0.386	0.436
RPS12_P25398_50_RQAHLCVLASNCDEPMYVK (UniProt P25398)	0.13	-0.199
RUVBL1_Q9Y265_94_VPFCPMVGSEVYSTEIK (UniProt Q9Y265)	-0.0483	-0.0862
RPS11_P62280_131_DVQIGDIVTVGECRPLSKTVR (UniProt P62280)	0.333	0.144

Target	probe-labelled cysteine peptide fold change (10 µM)	probe-labelled cysteine peptide fold change (50 µM)
RPS8_P62241_174+182_LLACIASRPGQCGR (UniProt P62241)	-0.43	-0.444
RTN3_O95197-3_42_SCSSSCAVHDLIFWR (UniProt O95197)	-2.02	-1.97
RSPRY1_Q96DX4_399_FLNHEGYGIGDDEYSCAYDGCR (UniProt Q96DX4)	-0.069	-0.0582
S100A4_P26447_3_ACPLEK (UniProt P26447)	-0.0729	-0.24
RPS17_P08708_35_VCEEIAIIPSKK (UniProt P08708)	-0.135	-0.205
RPS5_P46782_66_AQCPIVER (UniProt P46782)	-0.181	-0.176
RUFY1_Q96T51_351_ICSLQEEQQQLREQNELIR (UniProt Q96T51)	-0.177	-0.651
S100A8_P05109_42_LLETECPQYIR (UniProt P05109)	-0.163	-0.186
RRP1B_Q14684_628_VMSNLVEHNGVLESEAGQPQALGSSGTCSSLKK (UniProt Q14684)	0.0694	-0.589
RPS4Y1_P22090_181_FDTGNLCMVIGGANLGR (UniProt P22090)	0.0144	0.148
RRP12_Q5JTH9_799_VLEEVCASPQGPGALFVQSHLEDLK (UniProt Q5JTH9)	0.169	0.326
RUVBL1_Q9Y265_311_YIDQGIAELVPGVLFVDEVHMLDIECFTYLHR (UniProt Q9Y265)	-0.122	-0.0523
RPS20_P60866_36_VCADLIR (UniProt P60866)	-0.099	-0.0199
RRAGB_Q5VZM2_280_ATFLVISHYQCK (UniProt Q5VZM2)	-0.0897	0.489
RUFY1_Q96T51_81_ATGNLSASCGSALR (UniProt Q96T51)	0.144	0.371
SAMM50_Q9Y512_403_THFFLNAGNLCNLNYGEGPK (UniProt Q9Y512)	0.022	0.169
RPS6_P62753_100_GCIVDANLSVLNLVIVK (UniProt P62753)	0.00264	-0.0534
RPS12_P25398_108_KVVGCSCVVVK (UniProt P25398)	-0.00346	-0.34
RTCA_O00442_63_DLCDGQLEGAEIGSTEITFTPEK (UniProt O00442)	0.112	0.36
